In article PMC7819943, “Rice protein-binding microarrays: a tool to detect cis-acting elements near promoter regions in rice”:
The other results are listed elsewhere or left out.

The chains behind the UniProt entries cited, without tags or fusion partners.
UniProt Q0JBA9, entry or part of it: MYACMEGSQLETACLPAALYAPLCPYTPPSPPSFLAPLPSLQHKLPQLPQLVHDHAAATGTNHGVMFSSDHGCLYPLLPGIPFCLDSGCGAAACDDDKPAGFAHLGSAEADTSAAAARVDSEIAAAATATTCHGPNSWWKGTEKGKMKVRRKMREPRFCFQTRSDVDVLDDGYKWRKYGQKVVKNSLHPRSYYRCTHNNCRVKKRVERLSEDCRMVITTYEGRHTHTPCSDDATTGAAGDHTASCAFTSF

Biological target: OsWRKY34 (Oryza sativa, UniProt Q0JBA9 1-250)
Assay: protein-binding microarray (RPBM); PBS, 2% BSA, 51.3 ng/ul salmon testes DNA, 50 uM zinc acetate, 200 nM TF, 25 C, 1 h; high values mean tight binding
Settings: protein: recombinant; tags: N-terminal polyhistidine and DsRed monomer fusion (pET32a); label: CyDye5-dUTP incorporated in the synthesized complementary strand; 3' TTTTT single-stranded linker to array surface; dsDNA, one strand shown
Method in brief: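 Transcription factors were each fused at the N-terminus to a polyhistidine tag plus DsRed and expressed in E. coli BL21-CodonPlus before Ni–NTA purification. Binding to a double-stranded custom Agilent array was carried out with 200 nM protein at 25 °C for 1 h in PBS, 2% BSA, salmon testes DNA and 50 µM zinc acetate. The binding signal is per-feature fluorescence intensity, in arbitrary units, on an Axon 4000B scanner.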

Row | Sequence | binding signal
1 | GCAACCTCATACTTGAGCCAACGCAACTGTCAAATCTAAACGGAGTCACCTAGTGCAG | 8160 fluorescence intensity (a.u.)
2 | TTTTTTAAACATGTTTGACCGTTCGTCTTATTCAAAAACTCGGAGTCACCTAGTGCAG | 9000 fluorescence intensity (a.u.)
3 | TTATTATTCTAAAAATATGTGCATTTATATTTTTACATATCGGAGTCACCTAGTGCAG | 8520 fluorescence intensity (a.u.)
4 | AACCTCACCTCTGACGGTTTCTACTTCCGGCCCGTCACATCGGAGTCACCTAGTGCAG | 9830 fluorescence intensity (a.u.)
5 | CTCGCGATTTCCATGCAAACTGTGTAATTAGTTTTTTTATCGGAGTCACCTAGTGCAG | 8720 fluorescence intensity (a.u.)
6 | GGGAGGGAGAGGAGGCGGAGGAGGAGGAGGTGGAGGAGTACGGAGTCACCTAGTGCAG | 8610 fluorescence intensity (a.u.)
7 | GGTGGTGTTGTTGGTGGTGCAGTTCTTGGAGTCACATGGTCGGAGTCACCTAGTGCAG | 10300 fluorescence intensity (a.u.)
8 | GCCTCGTCTTTTTCTTAGGTTTATGCTTATCAGCTAAAATCGGAGTCACCTAGTGCAG | 8620 fluorescence intensity (a.u.)
9 | TGCAGCGTTGGTCAGGGGCCTCTCCGTCTATCTGTTCCTACGGAGTCACCTAGTGCAG | 10900 fluorescence intensity (a.u.)
10 | ACTGTGTTTCTTTGGTTGTTCCTCTCATTTACGAATAGAACGGAGTCACCTAGTGCAG | 10300 fluorescence intensity (a.u.)
11 | CTTTCGGTGTCTCCTTCAATGTTTGGTGGTACTTTCTGTTCGGAGTCACCTAGTGCAG | 8950 fluorescence intensity (a.u.)
12 | ATGATGAACACGATCCCAGTGCTTAATGCGCTTTTTTTTTCGGAGTCACCTAGTGCAG | 8620 fluorescence intensity (a.u.)
13 | TACTCCAAAGCACCGTTAATACTACTACTTCTCTCACGAACGGAGTCACCTAGTGCAG | 9000 fluorescence intensity (a.u.)
14 | CCACACACGTAGCTTCTCGAATTCTCCGGCGACTCTCCTACGGAGTCACCTAGTGCAG | 10500 fluorescence intensity (a.u.)
15 | ACAGGTTTGTATGTACTAATATTTTTCATGCCTACATTTCCGGAGTCACCTAGTGCAG | 8180 fluorescence intensity (a.u.)
16 | GCCACCGTCCTGCTGCTTCCGCCGCATCCTCTCCCCGCCGCGGAGTCACCTAGTGCAG | 11400 fluorescence intensity (a.u.)
17 | CACCGCCACCGCCACCGCCACCGCCCGCACTCTCCGCTCGCGGAGTCACCTAGTGCAG | 8190 fluorescence intensity (a.u.)
18 | TATCGTATTGTGCTTTTGATTCGCGTTCTAATTACGTGCACGGAGTCACCTAGTGCAG | 8940 fluorescence intensity (a.u.)
19 | ACTATTTGGATATCCCATTCCAACGCCATTGCCCTCTGTTCGGAGTCACCTAGTGCAG | 8280 fluorescence intensity (a.u.)
20 | TCTTTTCGGTAGCTACTTTCTACATCTCTCTTATTTGGATCGGAGTCACCTAGTGCAG | 8480 fluorescence intensity (a.u.)
21 | GGTTAGAGATACATACATATTATACCTGATTCACCTCACTCGGAGTCACCTAGTGCAG | 8060 fluorescence intensity (a.u.)

Row | Sequence | binding signal
22 | CGCCTCCACGGCGCCCACGCTCATCGCCACCATCCACGACCGGAGTCACCTAGTGCAG | 8610 fluorescence intensity (a.u.)
23 | TAGTTATTTATAGAGTTAGGGTGTGTATGTTGTACTTATACGGAGTCACCTAGTGCAG | 8430 fluorescence intensity (a.u.)
24 | AGCCCAAACCCCGCAGCCGACGCGCTTCCCCGTTGACGCCCGGAGTCACCTAGTGCAG | 8480 fluorescence intensity (a.u.)
25 | TTCGACTCTCGGTACCAGTTAGCATGCGAGTTTTTTTTGACGGAGTCACCTAGTGCAG | 11800 fluorescence intensity (a.u.)
26 | TTACCGTCCATCTGCGTCTGTCCTGATCCATATCCTCCATCGGAGTCACCTAGTGCAG | 8550 fluorescence intensity (a.u.)
27 | CTACTGTCCAGTGACTGACCGAGCCCTGCACACCCTACGTCGGAGTCACCTAGTGCAG | 9740 fluorescence intensity (a.u.)
28 | TCACTGTCACACATGATGACCCCGCTCACATCATCACTTACGGAGTCACCTAGTGCAG | 8310 fluorescence intensity (a.u.)
29 | TATCCAGCTAATCTCTCTCCTCATGCCATCTCTATATAAACGGAGTCACCTAGTGCAG | 8290 fluorescence intensity (a.u.)
30 | AATGGCATATACTACTGTTTAGTACCTTCCAAGGATCATGCGGAGTCACCTAGTGCAG | 8040 fluorescence intensity (a.u.)
31 | ACTATTTTATTTCCCATTGACAGATTATACAGTGACATGCCGGAGTCACCTAGTGCAG | 8050 fluorescence intensity (a.u.)
32 | CTTATTCCATCTTGCACTTTCTCATTGTTGAACATGCTGACGGAGTCACCTAGTGCAG | 8500 fluorescence intensity (a.u.)
33 | TTACACTGTTACCGTTCGTTCTTCGTTTTGTCAATCGCAACGGAGTCACCTAGTGCAG | 12300 fluorescence intensity (a.u.)
34 | ATTGCTGCTACTTGAGGTCAAGCCCGTTCGTTCGCGCGCGCGGAGTCACCTAGTGCAG | 8050 fluorescence intensity (a.u.)
35 | TCTGTCGCTATGTAGGATTTGTATGTGTGTCCAAATATATCGGAGTCACCTAGTGCAG | 11000 fluorescence intensity (a.u.)
36 | TGCGTGGTGTTGCTTTTTTGGATCTGGTGTGTTAATTTGGCGGAGTCACCTAGTGCAG | 9790 fluorescence intensity (a.u.)
37 | CATCTCTACTTCATTTCTCTCGTGTTATTGGCCTCCTCCGCGGAGTCACCTAGTGCAG | 10500 fluorescence intensity (a.u.)
38 | GTTTAATTTTTTCACTTTATATTTTCATCAGTCTATAAAACGGAGTCACCTAGTGCAG | 9650 fluorescence intensity (a.u.)
39 | ATATCGCTGTCCACTTCCAACCTTTCGTTCTGTATGTTAGCGGAGTCACCTAGTGCAG | 12500 fluorescence intensity (a.u.)
40 | GGCTCTTGTACGGACCACCATTATCATTTGTTATCATTGACGGAGTCACCTAGTGCAG | 10200 fluorescence intensity (a.u.)
41 | GTCTTGTCTTCATTGTTCTTCAGGGAGGGTTCGTCAGCCTCGGAGTCACCTAGTGCAG | 11000 fluorescence intensity (a.u.)
42 | ACACCGCTGCCTGCATACTCCTCTGATCAATCTCTCTAGTCGGAGTCACCTAGTGCAG | 10600 fluorescence intensity (a.u.)

Reprinted at random: 2 entries already listed, in no set order.
Row | Sequence | binding signal
25 | TTCGACTCTCGGTACCAGTTAGCATGCGAGTTTTTTTTGACGGAGTCACCTAGTGCAG | 11800 fluorescence intensity (a.u.)
14 | CCACACACGTAGCTTCTCGAATTCTCCGGCGACTCTCCTACGGAGTCACCTAGTGCAG | 10500 fluorescence intensity (a.u.)
